Some of the results follow.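 How the source made its calls: active = dose-dependent thermal stabilisation significant by F-test of dose-response against flat model at 10% FDR; inactive = not significant.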
compound: Nc1nc2c(ncn2[C@@H]2O[C@H](COP(=O)(O)OP(=O)(O)OP(=O)(O)O)[C@@H](O)[C@H]2O)c(=O)[nH]1; assay: dose-dependent thermal stabilisation call (2D-TPP, DLPTP, 10% FDR) (binary (1 = stabilised)); higher = stabilised by the compound; conditions: system: Jurkat gel-filtered lysate; concentration range 1-500 µM

Chains of the proteins cited; added tags and fusions are not shown. Lines headed by an entry give the natural chain unless they say otherwise; changes in a name come on top.
UniProt Q12981: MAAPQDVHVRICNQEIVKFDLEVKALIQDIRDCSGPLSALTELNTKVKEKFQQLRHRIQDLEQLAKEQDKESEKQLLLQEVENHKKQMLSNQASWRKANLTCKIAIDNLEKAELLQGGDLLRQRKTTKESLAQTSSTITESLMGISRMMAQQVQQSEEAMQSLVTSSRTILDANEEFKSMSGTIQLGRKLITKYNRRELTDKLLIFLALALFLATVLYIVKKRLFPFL
UniProt P41223: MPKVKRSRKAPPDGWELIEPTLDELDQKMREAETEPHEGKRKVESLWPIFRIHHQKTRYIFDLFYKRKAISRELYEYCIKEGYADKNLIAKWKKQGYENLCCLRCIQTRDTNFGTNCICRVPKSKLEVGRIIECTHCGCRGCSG
UniProt P21283, whole entry: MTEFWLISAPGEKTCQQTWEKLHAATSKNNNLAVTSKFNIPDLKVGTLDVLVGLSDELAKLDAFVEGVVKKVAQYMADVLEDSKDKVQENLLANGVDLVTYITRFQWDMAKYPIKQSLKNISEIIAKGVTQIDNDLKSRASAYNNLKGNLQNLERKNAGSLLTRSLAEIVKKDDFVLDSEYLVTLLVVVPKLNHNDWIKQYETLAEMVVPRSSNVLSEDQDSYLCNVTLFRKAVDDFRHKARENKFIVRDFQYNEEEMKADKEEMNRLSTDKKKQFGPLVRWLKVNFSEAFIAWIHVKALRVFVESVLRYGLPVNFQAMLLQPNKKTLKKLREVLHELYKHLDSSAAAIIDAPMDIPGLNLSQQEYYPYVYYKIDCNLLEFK
UniProt Q86Y37: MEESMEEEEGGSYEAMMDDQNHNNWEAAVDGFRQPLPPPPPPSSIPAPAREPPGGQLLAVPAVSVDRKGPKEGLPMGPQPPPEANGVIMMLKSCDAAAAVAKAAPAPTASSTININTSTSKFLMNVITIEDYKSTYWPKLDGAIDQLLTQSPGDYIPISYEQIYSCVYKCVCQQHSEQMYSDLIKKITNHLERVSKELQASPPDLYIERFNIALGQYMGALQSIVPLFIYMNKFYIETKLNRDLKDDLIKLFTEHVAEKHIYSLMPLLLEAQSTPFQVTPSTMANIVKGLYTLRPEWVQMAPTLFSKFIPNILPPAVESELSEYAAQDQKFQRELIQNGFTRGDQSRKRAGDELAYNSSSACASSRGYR
UniProt Q76L83: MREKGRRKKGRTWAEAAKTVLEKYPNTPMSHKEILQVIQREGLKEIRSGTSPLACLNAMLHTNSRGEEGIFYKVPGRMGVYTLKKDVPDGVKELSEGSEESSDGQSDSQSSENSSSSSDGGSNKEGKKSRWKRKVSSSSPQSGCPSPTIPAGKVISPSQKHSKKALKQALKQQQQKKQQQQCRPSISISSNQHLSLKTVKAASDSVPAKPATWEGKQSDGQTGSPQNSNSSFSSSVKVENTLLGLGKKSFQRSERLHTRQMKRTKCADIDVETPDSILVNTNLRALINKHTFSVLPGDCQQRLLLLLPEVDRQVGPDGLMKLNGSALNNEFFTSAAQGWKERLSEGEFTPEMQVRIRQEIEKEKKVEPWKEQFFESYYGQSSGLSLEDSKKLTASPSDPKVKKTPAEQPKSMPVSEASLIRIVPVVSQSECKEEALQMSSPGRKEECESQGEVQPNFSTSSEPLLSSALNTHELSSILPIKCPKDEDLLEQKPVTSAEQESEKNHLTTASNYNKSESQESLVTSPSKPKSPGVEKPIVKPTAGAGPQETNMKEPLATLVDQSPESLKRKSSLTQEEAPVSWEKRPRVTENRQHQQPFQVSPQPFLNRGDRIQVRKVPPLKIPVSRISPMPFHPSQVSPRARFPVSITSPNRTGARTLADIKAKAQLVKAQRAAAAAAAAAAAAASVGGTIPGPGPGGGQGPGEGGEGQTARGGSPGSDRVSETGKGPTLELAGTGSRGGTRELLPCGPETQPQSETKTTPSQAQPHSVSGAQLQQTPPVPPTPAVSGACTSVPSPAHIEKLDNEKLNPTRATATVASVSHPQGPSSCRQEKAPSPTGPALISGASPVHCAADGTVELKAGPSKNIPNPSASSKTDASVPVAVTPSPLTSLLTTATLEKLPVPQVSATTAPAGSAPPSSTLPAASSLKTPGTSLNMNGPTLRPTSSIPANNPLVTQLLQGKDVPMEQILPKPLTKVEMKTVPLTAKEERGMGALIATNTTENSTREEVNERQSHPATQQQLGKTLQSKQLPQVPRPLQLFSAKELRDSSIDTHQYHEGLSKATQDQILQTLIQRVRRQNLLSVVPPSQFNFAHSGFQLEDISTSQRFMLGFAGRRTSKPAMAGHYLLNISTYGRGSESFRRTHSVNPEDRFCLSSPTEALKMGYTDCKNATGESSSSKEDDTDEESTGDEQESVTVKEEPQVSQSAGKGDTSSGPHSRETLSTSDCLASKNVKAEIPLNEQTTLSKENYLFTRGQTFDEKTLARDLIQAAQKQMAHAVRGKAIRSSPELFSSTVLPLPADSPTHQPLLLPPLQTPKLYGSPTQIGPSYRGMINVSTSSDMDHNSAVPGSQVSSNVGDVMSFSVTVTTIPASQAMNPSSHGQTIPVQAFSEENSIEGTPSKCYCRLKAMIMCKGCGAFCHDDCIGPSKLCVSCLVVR
UniProt Q6DD88: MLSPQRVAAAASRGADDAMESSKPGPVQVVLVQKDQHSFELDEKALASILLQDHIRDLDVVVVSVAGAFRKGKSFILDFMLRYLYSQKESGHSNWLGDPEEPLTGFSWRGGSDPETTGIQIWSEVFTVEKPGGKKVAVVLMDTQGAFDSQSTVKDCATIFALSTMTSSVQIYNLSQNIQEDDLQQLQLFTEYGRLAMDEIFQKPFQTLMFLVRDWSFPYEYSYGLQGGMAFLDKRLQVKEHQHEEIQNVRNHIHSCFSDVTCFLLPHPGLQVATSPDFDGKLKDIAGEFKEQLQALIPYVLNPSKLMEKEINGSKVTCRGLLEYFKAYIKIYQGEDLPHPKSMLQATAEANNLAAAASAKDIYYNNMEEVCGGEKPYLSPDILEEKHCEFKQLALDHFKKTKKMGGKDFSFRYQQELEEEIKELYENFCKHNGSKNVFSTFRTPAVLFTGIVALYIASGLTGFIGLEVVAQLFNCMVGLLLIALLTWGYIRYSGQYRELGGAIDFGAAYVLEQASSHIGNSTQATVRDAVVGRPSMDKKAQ
UniProt Q7L1Q6: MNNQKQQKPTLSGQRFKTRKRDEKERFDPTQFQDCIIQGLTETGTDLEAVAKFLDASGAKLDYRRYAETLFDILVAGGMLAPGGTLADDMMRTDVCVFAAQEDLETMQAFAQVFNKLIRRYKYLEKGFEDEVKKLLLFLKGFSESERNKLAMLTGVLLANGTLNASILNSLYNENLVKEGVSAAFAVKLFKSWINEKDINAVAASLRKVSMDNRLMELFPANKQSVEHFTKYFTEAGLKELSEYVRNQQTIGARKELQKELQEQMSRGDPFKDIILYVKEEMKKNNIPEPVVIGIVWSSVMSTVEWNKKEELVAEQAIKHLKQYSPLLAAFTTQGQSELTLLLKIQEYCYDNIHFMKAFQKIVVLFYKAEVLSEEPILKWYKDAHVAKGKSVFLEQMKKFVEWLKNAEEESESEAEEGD
UniProt P32121, whole entry: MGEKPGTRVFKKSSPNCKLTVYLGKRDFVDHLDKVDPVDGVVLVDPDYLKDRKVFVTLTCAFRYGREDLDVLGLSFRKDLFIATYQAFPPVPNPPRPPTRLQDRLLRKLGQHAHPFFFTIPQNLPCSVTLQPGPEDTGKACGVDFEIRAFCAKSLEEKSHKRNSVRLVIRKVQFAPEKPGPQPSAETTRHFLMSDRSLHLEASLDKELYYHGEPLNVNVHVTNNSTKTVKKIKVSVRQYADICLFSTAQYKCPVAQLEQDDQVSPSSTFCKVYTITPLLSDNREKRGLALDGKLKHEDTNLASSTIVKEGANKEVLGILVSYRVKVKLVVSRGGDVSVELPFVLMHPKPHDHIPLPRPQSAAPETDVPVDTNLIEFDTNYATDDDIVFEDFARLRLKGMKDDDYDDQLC
UniProt O43150: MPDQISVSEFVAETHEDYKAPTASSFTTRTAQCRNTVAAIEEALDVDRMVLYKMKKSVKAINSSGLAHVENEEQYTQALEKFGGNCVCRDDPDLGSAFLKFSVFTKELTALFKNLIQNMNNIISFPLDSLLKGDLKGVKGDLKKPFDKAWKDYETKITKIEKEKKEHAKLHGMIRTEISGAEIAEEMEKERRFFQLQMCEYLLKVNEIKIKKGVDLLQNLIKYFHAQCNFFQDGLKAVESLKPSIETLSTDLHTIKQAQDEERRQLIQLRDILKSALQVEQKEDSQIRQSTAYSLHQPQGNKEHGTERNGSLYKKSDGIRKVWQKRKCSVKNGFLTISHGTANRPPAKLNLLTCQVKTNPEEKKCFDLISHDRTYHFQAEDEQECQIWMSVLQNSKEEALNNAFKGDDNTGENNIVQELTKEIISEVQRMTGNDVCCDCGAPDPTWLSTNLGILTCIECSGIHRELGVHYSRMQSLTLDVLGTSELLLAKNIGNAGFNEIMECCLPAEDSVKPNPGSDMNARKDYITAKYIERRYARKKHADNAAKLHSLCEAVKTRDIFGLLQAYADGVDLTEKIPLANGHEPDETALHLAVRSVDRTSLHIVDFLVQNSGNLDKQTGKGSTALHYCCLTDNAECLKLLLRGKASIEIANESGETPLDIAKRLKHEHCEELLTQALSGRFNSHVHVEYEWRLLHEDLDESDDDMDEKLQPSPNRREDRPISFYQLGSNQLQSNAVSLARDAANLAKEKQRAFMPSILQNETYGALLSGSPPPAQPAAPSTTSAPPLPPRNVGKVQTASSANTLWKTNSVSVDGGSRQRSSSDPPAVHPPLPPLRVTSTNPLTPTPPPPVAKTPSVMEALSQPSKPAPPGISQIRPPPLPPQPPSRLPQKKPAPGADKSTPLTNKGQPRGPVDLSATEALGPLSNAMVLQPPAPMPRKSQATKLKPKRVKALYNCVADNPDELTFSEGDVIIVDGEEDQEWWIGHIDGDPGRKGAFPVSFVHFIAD
UniProt Q8WXX7: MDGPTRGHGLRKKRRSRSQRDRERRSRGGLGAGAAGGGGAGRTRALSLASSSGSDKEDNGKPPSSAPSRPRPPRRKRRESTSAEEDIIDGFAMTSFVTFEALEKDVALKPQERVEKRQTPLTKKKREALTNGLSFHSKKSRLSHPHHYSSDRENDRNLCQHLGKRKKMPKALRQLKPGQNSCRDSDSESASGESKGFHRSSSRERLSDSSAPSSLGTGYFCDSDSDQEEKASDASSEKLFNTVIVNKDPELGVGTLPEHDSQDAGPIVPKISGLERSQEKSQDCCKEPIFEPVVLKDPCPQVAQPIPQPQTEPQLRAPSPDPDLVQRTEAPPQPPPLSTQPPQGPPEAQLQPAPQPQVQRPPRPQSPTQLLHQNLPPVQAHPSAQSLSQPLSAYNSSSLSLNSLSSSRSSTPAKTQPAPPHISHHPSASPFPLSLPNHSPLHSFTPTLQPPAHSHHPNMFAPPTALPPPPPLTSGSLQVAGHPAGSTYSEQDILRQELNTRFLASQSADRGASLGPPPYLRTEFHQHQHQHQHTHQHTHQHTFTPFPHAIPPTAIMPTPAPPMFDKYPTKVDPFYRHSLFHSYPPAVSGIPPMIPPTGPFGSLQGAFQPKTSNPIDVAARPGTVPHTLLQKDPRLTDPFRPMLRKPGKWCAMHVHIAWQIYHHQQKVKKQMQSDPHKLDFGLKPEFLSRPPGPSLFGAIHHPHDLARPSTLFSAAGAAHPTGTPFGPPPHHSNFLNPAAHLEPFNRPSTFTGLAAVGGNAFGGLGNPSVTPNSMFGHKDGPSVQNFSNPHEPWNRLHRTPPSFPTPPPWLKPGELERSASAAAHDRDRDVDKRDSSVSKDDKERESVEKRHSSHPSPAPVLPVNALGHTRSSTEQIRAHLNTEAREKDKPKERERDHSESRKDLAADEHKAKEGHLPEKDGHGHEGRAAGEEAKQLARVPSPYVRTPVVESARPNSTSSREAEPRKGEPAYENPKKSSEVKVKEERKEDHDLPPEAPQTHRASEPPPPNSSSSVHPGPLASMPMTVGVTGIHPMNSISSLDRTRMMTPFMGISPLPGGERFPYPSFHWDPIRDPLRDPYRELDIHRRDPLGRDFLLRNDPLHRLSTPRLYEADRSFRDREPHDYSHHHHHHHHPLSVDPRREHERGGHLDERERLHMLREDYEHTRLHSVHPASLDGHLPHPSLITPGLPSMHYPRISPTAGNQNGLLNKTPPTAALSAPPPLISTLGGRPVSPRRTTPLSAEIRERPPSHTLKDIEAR
UniProt P30049: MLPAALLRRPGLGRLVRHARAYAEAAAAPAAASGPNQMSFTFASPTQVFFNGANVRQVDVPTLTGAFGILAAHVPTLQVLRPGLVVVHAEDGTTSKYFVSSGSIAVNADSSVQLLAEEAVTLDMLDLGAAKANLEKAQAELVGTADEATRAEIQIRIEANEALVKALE
UniProt Q07817, whole entry: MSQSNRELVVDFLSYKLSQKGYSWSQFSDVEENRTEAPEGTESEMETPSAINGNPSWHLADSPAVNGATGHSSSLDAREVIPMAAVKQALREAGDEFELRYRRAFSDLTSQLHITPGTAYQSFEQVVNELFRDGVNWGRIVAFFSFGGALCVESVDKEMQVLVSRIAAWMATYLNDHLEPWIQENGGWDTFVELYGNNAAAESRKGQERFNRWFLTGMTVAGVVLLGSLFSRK

Target | dose-dependent thermal stabilisation call
ATXN7L3 (UniProt Q14CW9) | inactive: 0
ASMTL (UniProt O95671) | inactive: 0
ATXN1L (UniProt P0C7T5) | inactive: 0
BAG2 (UniProt O95816) | inactive: 0
BNIP1 (UniProt Q12981) | inactive: 0
C18orf8 (UniProt Q96DM3) | active: 1
C10orf76 (UniProt Q5T2E6) | inactive: 0
CARNMT1 (UniProt Q8N4J0) | inactive: 0
C10orf88 (UniProt Q9H8K7) | inactive: 0
ARPC2 (UniProt O15144) | active: 1
ARPC1B (UniProt O15143) | active: 1
ARHGEF1 (UniProt Q92888) | inactive: 0
BUD31 (UniProt P41223) | inactive: 0
BTF3 (UniProt P20290) | inactive: 0
ATP6V1C1 (UniProt P21283) | inactive: 0
ARL3 (UniProt P36405) | active: 1
CACUL1 (UniProt Q86Y37) | inactive: 0
C20orf27 (UniProt Q9GZN8) | inactive: 0

Target | dose-dependent thermal stabilisation call
ASXL2 (UniProt Q76L83) | inactive: 0
CAD (UniProt P27708) | inactive: 0
ATL3 (UniProt Q6DD88) | active: 1
ATG16L1 (UniProt Q676U5) | inactive: 0
BDH2 (UniProt Q9BUT1) | inactive: 0
BZW1 (UniProt Q7L1Q6) | inactive: 0
BOP1 (UniProt Q14137) | active: 1
ARRB2 (UniProt P32121) | inactive: 0
CA8 (UniProt P35219) | inactive: 0
ASAP2 (UniProt O43150) | inactive: 0
AUTS2 (UniProt Q8WXX7) | inactive: 0
ARHGEF18 (UniProt Q6ZSZ5) | inactive: 0
CAMK2G (UniProt Q13555) | inactive: 0
C9orf64 (UniProt Q5T6V5) | inactive: 0
ARHGAP30 (UniProt Q7Z6I6) | inactive: 0
C16orf62 (UniProt Q7Z3J2) | active: 1
ATP5D (UniProt P30049) | inactive: 0
BCL2L1 (UniProt Q07817) | inactive: 0

As entered above:
For dose-dependent thermal stabilisation call, ARHGEF18 (UniProt Q6ZSZ5) reads inactive: 0
For dose-dependent thermal stabilisation call, ARHGAP30 (UniProt Q7Z6I6) reads inactive: 0

Source: the supplement of paper PMC7666118
